{"source": "the supplement of paper PMC5949888", "note": "Most values lie at the floor of the assay. Slopes are relative: functional sequences can read slightly below zero."}
{"test_system": "Saccharomyces cerevisiae PS128 hsf1 delta, HSF1(1-493) fusion", "experiment": "growth estimate (transactivation domain function in HSF1 fusion, heat-shock survival) (a.u. (slope of normalised read count over time)); higher = stronger growth at 37°C, i.e. more transactivation activity", "details": "library: random library", "protocol": "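Random 60-nt DNA library encoding peptides of up to 20 aa, fused to the C-terminus of yeast HSF1 residues 1-493 (C-terminal TAD deleted) and expressed from the native HSF1 promoter on a CEN plasmid in hsf1-deleted S. cerevisiae PS128. Cells were selected at 37°C on -trp 5-FOA plates for 0, 2, 4, 6 and 8 days and amplicons were sequenced. Growth estimate is the slope of a robust linear fit of total-sum-normalised read counts (normalised to the first time point) over time, using at least 2 replicates. Sequences are classed functional (TAD activity) above a threshold of -0.13, set from stop-codon control sequences.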"}
{"substance": "EIGYIGSKRTQPPTCMVLGS", "growth estimate": "< -0.25"}
{"substance": "EIIVMILLGAPGGINLHFEG", "growth estimate": "< -0.25"}
{"substance": "EILLTL", "growth estimate": "< -0.25"}
{"substance": "EILRLKAEHPAAS", "growth estimate": "< -0.25"}
{"substance": "EIM", "growth estimate": "< -0.25"}
{"substance": "EIQS", "growth estimate": "< -0.25"}
{"substance": "EIRFRGIAFPTFICLTALGR", "growth estimate": -0.248}
{"substance": "EIRLESVME", "growth estimate": "< -0.25"}
{"substance": "EISSRNRGVMPIRLIMAGMR", "growth estimate": -0.168}
{"substance": "EITRVVYSADGHMGTTWAIG", "growth estimate": "< -0.25"}
{"substance": "EIVGSEE", "growth estimate": "< -0.25"}
{"substance": "EIVKVIRMSRAA", "growth estimate": "< -0.25"}
{"substance": "EKAFVTSQAT", "growth estimate": "< -0.25"}
{"substance": "EKAQTQGRWLGAGRAPLQHI", "growth estimate": "< -0.25"}
{"substance": "EKARQ", "growth estimate": "< -0.25"}
{"substance": "EKATPWRQ", "growth estimate": "< -0.25"}
{"substance": "EKCTAPYYLDGWGASACLSL", "growth estimate": "< -0.25"}
{"substance": "EKCTCRRRQN", "growth estimate": "< -0.25"}
{"substance": "EKIQFLRFESRLVGTHYGML", "growth estimate": "< -0.25"}
{"substance": "EKLKTLA", "growth estimate": "< -0.25"}
{"substance": "EKLLVLRRLILLGRAVSMSS", "growth estimate": "< -0.25"}
{"substance": "EKPLTSRSRYHQRDSGQCDN", "growth estimate": "< -0.25"}
{"substance": "EKRAHVLRT", "growth estimate": "< -0.25"}
{"substance": "EKRQVLRFGAGGRFSLSARR", "growth estimate": -0.245}
{"substance": "EKSIYLDGMSVTNTQLDLER", "growth estimate": "< -0.25"}
{"substance": "EKSRHQYEGLLSTEWRFSSL", "growth estimate": 0.251}
{"substance": "EKSRITASGRVFSRGLSRLV", "growth estimate": "< -0.25"}
{"substance": "EKYSARYHRRTRDHFRLVP", "growth estimate": "< -0.25"}
{"substance": "ELAGTSQILIRDSGLKLSAD", "growth estimate": "< -0.25"}
{"substance": "ELAL", "growth estimate": "< -0.25"}
{"substance": "ELASKRI", "growth estimate": "< -0.25"}
{"substance": "ELASLRVQTRCACYSTKTSG", "growth estimate": "< -0.25"}
{"substance": "ELATGGSKGRTCQVQHWWVA", "growth estimate": "< -0.25"}
{"substance": "ELAYLPGFLDRMLPSL", "growth estimate": 1.16}
{"substance": "ELDYLTVECDRQVST", "growth estimate": "< -0.25"}
{"substance": "ELEGSVPC", "growth estimate": "< -0.25"}
{"substance": "ELGLEPWAPDRNNYDKLGIA", "growth estimate": "< -0.25"}
{"substance": "ELGLLSGSEHPSRVEFMG", "growth estimate": "< -0.25"}
{"substance": "ELGRGTLFSGNNA", "growth estimate": "< -0.25"}
{"substance": "ELGRTVYYVLGHDKSAVGEP", "growth estimate": "< -0.25"}
{"substance": "ELI", "growth estimate": "< -0.25"}
{"substance": "ELIPSYRTGQF", "growth estimate": "< -0.25"}
{"substance": "ELKASVLHRLTLGFGSKDSL", "growth estimate": "< -0.25"}
{"substance": "ELKRAHYGNQSGDGTQTDSG", "growth estimate": "< -0.25"}
{"substance": "ELLILITKSAALDQLVFARS", "growth estimate": "< -0.25"}
{"substance": "ELLLVKVPKVS", "growth estimate": "< -0.25"}
{"substance": "ELMGGQGGGIDTCVLLLYIP", "growth estimate": "< -0.25"}
{"substance": "ELMTIPSAHFGVSERAPIRV", "growth estimate": "< -0.25"}
{"substance": "ELPQYDRYGRKSLFSRGCRG", "growth estimate": "< -0.25"}
{"substance": "ELQ", "growth estimate": "< -0.25"}
{"substance": "ELQEVGKTCSIKIS", "growth estimate": "< -0.25"}
{"substance": "ELRSVINPSYY", "growth estimate": "< -0.25"}
{"substance": "ELRTQE", "growth estimate": "< -0.25"}
{"substance": "ELSGNSWDTEWDLGAHSASG", "growth estimate": "< -0.25"}
{"substance": "ELSTLLCMRWNLASRSSLSL", "growth estimate": "< -0.25"}
{"substance": "ELSVVTGMR", "growth estimate": "< -0.25"}
{"substance": "ELTVVFGTNRL", "growth estimate": -0.246}
{"substance": "ELVNNGTVQPGVLGQHRLGQ", "growth estimate": "< -0.25"}
{"substance": "ELYKNPGMYSYFRVLLDTGL", "growth estimate": "< -0.25"}
{"substance": "EMGTATHVKCNSRKIEGNQP", "growth estimate": "< -0.25"}
{"substance": "EMILVGREAAKRFMLCVP", "growth estimate": -0.0073}
{"substance": "EMPLLRVLVCIPVIMVRWGR", "growth estimate": "< -0.25"}
{"substance": "EMSISVGESYRCDSCVTWDG", "growth estimate": "< -0.25"}
{"substance": "ENAAMECTKPRALTPIYGR", "growth estimate": "< -0.25"}
{"substance": "ENAFWVSESCEQSQKRWAVS", "growth estimate": "< -0.25"}
{"substance": "ENLVSGLMPRACEKSIESFR", "growth estimate": "< -0.25"}
{"substance": "ENQDVNRGWKIEPAPATTLS", "growth estimate": "< -0.25"}
{"substance": "EPECCPETHTAFYVYVKSSG", "growth estimate": "< -0.25"}
{"substance": "EPEYSVWRDMCRTSDKARLH", "growth estimate": "< -0.25"}
{"substance": "EPFYSASPQDLAGMKRAVQR", "growth estimate": "< -0.25"}
{"substance": "EPGLAVP", "growth estimate": "< -0.25"}
{"substance": "EPHIKRGVNSLRVEKPHPLA", "growth estimate": "< -0.25"}
{"substance": "EPLH", "growth estimate": "< -0.25"}
{"substance": "EPLPGGRI", "growth estimate": "< -0.25"}
{"substance": "EPLYREQSWSGMRGVDLRYL", "growth estimate": "< -0.25"}
{"substance": "EPMGLDQWHNEEGFWRAGAA", "growth estimate": "< -0.25"}
{"substance": "EPMNKLLAGYDGPVWMASTR", "growth estimate": "< -0.25"}
{"substance": "EPPDLLARIQTLHYARCKEV", "growth estimate": "< -0.25"}
{"substance": "EPRAAQASGPLTPLGVRGVE", "growth estimate": "< -0.25"}
{"substance": "EPSNSAIGKSSTQTSMVTLP", "growth estimate": "< -0.25"}
{"substance": "EPVDPVKRTNVYIDTEMAWF", "growth estimate": "< -0.25"}
{"substance": "EQESDQWKGWGRLIPTCHVS", "growth estimate": "< -0.25"}
{"substance": "EQGILSGLRRMVLNDTRALV", "growth estimate": "< -0.25"}
{"substance": "EQHGLP", "growth estimate": "< -0.25"}
{"substance": "EQIAPGSQKGHTCAATVRSC", "growth estimate": "< -0.25"}
{"substance": "EQPVRADVSRFNEGCSLTSA", "growth estimate": "< -0.25"}
{"substance": "EQQLHRLYIKY", "growth estimate": "< -0.25"}
{"substance": "EQRGGLYHSGCEGSYRGMWG", "growth estimate": "< -0.25"}
{"substance": "EQRKVRCSAF", "growth estimate": "< -0.25"}
{"substance": "EQVRYPIRNLRQYMPN", "growth estimate": "< -0.25"}
{"substance": "ERAAR", "growth estimate": "< -0.25"}
{"substance": "ERACLLISERSRHVPEPHTQ", "growth estimate": "< -0.25"}
{"substance": "ERAGMLDRSYLDSEVYRGLT", "growth estimate": "< -0.25"}
{"substance": "ERAWLSLCGGKPKMFCVACK", "growth estimate": -0.208}
{"substance": "ERCLRLNDCGRIVMFLRLQP", "growth estimate": "< -0.25"}
{"substance": "ERDTVVCKRSDILDLTQVNC", "growth estimate": "< -0.25"}
{"substance": "EREILRMRVGVTPARCVNGR", "growth estimate": "< -0.25"}
{"substance": "EREKPSKV", "growth estimate": "< -0.25"}
{"substance": "ERESLQLRYIRARRTPVVAL", "growth estimate": "< -0.25"}
{"substance": "ERESLVVWLIQGNAVLCHLF", "growth estimate": "< -0.25"}
{"substance": "ERGAIAFRRRIYVGQLCSRL", "growth estimate": "< -0.25"}
{"substance": "ERGYSSAAAKPKQSHKRLSR", "growth estimate": "< -0.25"}
{"substance": "ERHRSASEYRCIIDIYQPAR", "growth estimate": "< -0.25"}
{"substance": "ERIRVGAGLGVRFQRRAWAA", "growth estimate": "< -0.25"}
{"substance": "ERLCEYRFGGPVMQI", "growth estimate": "< -0.25"}
{"substance": "ERLLRRFSWGTGVAD", "growth estimate": "< -0.25"}
{"substance": "ERMEFDTPQSQATDEGRRRA", "growth estimate": "< -0.25"}
{"substance": "ERMEQHLSPR", "growth estimate": "< -0.25"}
{"substance": "ERMWFDFNPSANLCSSPVGG", "growth estimate": "< -0.25"}
{"substance": "ERNNLNVGRSGMFASLGWNR", "growth estimate": "< -0.25"}
{"substance": "ERNREDVGVPRGYRLPMLDA", "growth estimate": "< -0.25"}
{"substance": "ERQAISTLLCLAGTGIPHGY", "growth estimate": "< -0.25"}
{"substance": "ERQTPTANRFSIVKRMVGNA", "growth estimate": "< -0.25"}
{"substance": "ERQTYTNGTGAHPSSLGRGS", "growth estimate": "< -0.25"}
{"substance": "ERRHPNDRRPFRSA", "growth estimate": "< -0.25"}
{"substance": "ERRPGENARHRAASSMTNMG", "growth estimate": "< -0.25"}
{"substance": "ERRRPNLLCGLPWSLLLSIR", "growth estimate": "< -0.25"}
{"substance": "ERSQRARIPRC", "growth estimate": "< -0.25"}
{"substance": "ERTSLAAYGSISSPCDGRV", "growth estimate": -0.0254}
{"substance": "ERVAWWLVARCLRTPVGEDV", "growth estimate": "< -0.25"}
{"substance": "ERVEKIIGPSCKLYAICRLA", "growth estimate": "< -0.25"}
{"substance": "ERVGRRIGRGNQRASS", "growth estimate": "< -0.25"}
{"substance": "ERVILGDSQ", "growth estimate": "< -0.25"}
{"substance": "ERVNRRVQNSFLVGAKRVST", "growth estimate": "< -0.25"}
{"substance": "ERVRRRYG", "growth estimate": "< -0.25"}
{"substance": "ERVSESRVKSRDVVGVLHSP", "growth estimate": "< -0.25"}
{"substance": "ERVVVPAVRQGNPVRIAALS", "growth estimate": "< -0.25"}
{"substance": "ERW", "growth estimate": "< -0.25"}
{"substance": "ESAGI", "growth estimate": "< -0.25"}
{"substance": "ESAGLVSR", "growth estimate": "< -0.25"}
{"substance": "ESAYRYEACRLRLGGACGFA", "growth estimate": "< -0.25"}
{"substance": "ESCELPVCQKAAEGGSGAGG", "growth estimate": "< -0.25"}
{"substance": "ESCGDVAARNV", "growth estimate": "< -0.25"}
{"substance": "ESCLCNAK", "growth estimate": "< -0.25"}
{"substance": "ESCPCG", "growth estimate": "< -0.25"}
{"substance": "ESCPPLGVDHGLMFDLLVGG", "growth estimate": "< -0.25"}
{"substance": "ESCVWRVARRRSSSLLIARA", "growth estimate": "< -0.25"}
{"substance": "ESDPGPSGGFARLGGFTTRV", "growth estimate": "< -0.25"}
{"substance": "ESEGSG", "growth estimate": "< -0.25"}
